Assay results: doi:10.1101/2020.10.29.359851
Results are given in words; binding and its absence hold for the method and conditions named. In cells and extracts the contact can be indirect. Some results given as binding are weak or reduced against the parent protein; the word gives no strength. Where a sequence is shown, tags or fusion partners need not be part of it.

Amino acid sequences for entries named in this document (tags omitted). A change or cut given only in a name is not applied to a line headed by its entry.
UniProt P06213: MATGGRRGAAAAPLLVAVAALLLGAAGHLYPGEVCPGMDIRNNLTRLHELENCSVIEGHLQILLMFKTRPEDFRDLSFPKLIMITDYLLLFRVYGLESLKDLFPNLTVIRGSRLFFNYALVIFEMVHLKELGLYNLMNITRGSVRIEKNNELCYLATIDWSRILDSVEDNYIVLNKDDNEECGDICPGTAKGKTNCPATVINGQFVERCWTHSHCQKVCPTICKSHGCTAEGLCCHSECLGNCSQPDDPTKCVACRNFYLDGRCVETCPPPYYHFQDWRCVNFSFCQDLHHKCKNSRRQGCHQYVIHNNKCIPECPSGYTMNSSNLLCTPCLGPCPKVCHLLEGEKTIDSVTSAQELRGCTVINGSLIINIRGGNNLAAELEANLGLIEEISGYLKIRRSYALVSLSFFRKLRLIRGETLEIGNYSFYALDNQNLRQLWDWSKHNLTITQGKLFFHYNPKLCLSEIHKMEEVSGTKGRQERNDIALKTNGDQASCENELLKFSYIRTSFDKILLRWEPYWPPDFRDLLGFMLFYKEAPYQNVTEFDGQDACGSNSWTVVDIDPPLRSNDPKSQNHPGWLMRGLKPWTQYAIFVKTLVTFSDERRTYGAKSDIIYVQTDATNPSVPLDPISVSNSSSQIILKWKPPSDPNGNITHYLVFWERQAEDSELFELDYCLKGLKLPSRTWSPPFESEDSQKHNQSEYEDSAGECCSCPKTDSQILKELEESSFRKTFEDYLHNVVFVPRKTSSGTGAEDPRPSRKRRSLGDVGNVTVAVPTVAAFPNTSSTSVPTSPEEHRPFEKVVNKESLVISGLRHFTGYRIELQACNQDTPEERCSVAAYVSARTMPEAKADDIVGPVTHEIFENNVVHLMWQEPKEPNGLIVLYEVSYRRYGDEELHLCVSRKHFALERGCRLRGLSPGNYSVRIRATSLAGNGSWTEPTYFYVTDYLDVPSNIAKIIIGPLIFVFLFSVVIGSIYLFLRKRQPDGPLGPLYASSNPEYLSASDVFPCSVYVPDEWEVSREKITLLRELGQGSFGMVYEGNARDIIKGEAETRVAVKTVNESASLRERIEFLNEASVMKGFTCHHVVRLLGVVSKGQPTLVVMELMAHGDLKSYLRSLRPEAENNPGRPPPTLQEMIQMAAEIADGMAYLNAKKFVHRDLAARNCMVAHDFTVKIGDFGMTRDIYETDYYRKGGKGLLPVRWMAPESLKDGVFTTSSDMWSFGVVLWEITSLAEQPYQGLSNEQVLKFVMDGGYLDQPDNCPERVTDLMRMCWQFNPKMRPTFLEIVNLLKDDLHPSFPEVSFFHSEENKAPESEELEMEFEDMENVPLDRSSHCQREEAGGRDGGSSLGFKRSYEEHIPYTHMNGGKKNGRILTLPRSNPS

How the values were obtained:
[1] = target: T1, 3xFlag-BBS10-GFP (human BBS10, expressed from CD615-3xFlag-BBS10-GFP) (human) (UniProt Q8TAM1); assay: co-IP
T1 sequence: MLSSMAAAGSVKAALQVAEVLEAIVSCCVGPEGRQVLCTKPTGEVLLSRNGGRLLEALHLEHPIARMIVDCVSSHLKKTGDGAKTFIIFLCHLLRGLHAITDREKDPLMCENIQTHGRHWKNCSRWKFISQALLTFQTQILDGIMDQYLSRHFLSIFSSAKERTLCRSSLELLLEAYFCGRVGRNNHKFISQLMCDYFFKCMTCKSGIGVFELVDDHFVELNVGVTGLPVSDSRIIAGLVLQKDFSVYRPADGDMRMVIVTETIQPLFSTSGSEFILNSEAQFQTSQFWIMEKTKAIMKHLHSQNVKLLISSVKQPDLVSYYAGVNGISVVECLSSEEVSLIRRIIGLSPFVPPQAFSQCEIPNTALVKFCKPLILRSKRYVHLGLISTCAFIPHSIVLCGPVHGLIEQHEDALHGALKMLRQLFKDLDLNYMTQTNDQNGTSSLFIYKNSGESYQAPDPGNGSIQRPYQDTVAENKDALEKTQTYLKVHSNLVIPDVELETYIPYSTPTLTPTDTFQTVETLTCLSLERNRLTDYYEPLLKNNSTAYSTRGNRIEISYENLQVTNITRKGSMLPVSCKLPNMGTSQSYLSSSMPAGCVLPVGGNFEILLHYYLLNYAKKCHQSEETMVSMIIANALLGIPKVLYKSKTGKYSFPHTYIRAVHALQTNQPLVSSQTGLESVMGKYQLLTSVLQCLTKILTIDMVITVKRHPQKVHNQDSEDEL

[2] = target: T2, 3xFlag-BBS1-GFP (human BBS1, expressed from CD615-3xFlag-BBS1-GFP) (human) (UniProt Q8NFJ9); assay: co-IP
T2 sequence: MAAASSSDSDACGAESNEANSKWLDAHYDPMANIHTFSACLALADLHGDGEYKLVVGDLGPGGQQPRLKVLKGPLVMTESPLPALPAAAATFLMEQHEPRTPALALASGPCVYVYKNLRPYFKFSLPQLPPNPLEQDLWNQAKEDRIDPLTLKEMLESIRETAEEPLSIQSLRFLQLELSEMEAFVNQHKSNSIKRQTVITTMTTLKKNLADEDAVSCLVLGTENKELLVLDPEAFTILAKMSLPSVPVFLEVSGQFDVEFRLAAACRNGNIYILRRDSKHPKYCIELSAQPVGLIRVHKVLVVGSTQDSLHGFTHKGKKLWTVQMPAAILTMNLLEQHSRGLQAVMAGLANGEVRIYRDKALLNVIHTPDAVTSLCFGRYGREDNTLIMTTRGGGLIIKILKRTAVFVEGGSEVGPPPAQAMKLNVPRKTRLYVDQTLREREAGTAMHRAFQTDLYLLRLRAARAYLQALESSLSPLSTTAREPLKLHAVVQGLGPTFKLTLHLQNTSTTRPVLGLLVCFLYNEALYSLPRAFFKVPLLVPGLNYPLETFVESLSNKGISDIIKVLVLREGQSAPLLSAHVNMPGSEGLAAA

insulin receptor (from UniProt P06213 28-758; P06213 763-1382)
binding [1]: binds | binding [2]: binds
